Assay results reported in paper PMC6214653.

Tests used:
[1] = molecular target: FLAG-tagged mouse TET1 catalytic domain (aa1367-2039) (mouse); assay: co-IP; FLAG IP (anti-FLAG M2 magnetic beads, 4°C) from lysates of HEK293T cells co-expressing FLAG-TET1 CD constructs and His-OGT constructs; 50 mM Tris pH 8, 200 mM NaCl, 1% NP40; western blot for FLAG and OGT or His
[2] = molecular target: FLAG-TET1 CD ΔC45 (mouse); assay: as above
[3] = molecular target: recombinant mouse TET1 catalytic domain (aa1367-2039), wild type (mouse); assay: pull-down; 2.5 µM rOGT and 2.5 µM rTET1 CD pre-incubated 15 min at room temperature in 50 mM Tris pH 7.5, 100 mM NaCl, 0.02% Tween-20, no UDP-GlcNAc; captured on TET1 antibody bound to Protein G Dynabeads; Coomassie stain; both purified
[4] = molecular target: recombinant mouse TET1 catalytic domain (aa1367-2039), D2018A (mouse); assay: as above
[5] = molecular target: endogenous full length TET1 with C-terminal 3xFLAG tag, D2018A (D2018A mESCs) (mouse (endogenous in LF2 mESCs)); assay: co-IP; FLAG IP from WT and D2018A mESCs (TET1-3xFLAG from the endogenous locus); western blot for FLAG and OGT
[6] = molecular target: FLAG-tagged mouse TET1 catalytic domain (aa1367-2039) (mouse); assay: co-IP; FLAG IP (anti-FLAG M2 magnetic beads, 4°C) from lysates of HEK293T cells overexpressing only FLAG-TET1 CD constructs; endogenous OGT detected by western blot
[7] = molecular target: FLAG-TET1 CD ΔC45 (mouse); assay: as above

- binding [3]: binds
- binding [4]: no binding (tested: 2.5 µM)
B2: recombinant human OGT (rOGT) (enzyme, UniProt O15294 1-1046)
chain: MASSVGNVADSTEPTKRMLSFQGLAELAHREYQAGDFEAAERHCMQLWRQEPDNTGVLLLLSSIHFQCRRLDRSAHFSTLAIKQNPLLAEAYSNLGNVYKERGQLQEAIEHYRHALRLKPDFIDGYINLAAALVAAGDMEGAVQAYVSALQYNPDLYCVRSDLGNLLKALGRLEEAKACYLKAIETQPNFAVAWSNLGCVFNAQGEIWLAIHHFEKAVTLDPNFLDAYINLGNVLKEARIFDRAVAAYLRALSLSPNHAVVHGNLACVYYEQGLIDLAIDTYRRAIELQPHFPDAYCNLANALKEKGSVAEAEDCYNTALRLCPTHADSLNNLANIKREQGNIEEAVRLYRKALEVFPEFAAAHSNLASVLQQQGKLQEALMHYKEAIRISPTFADAYSNMGNTLKEMQDVQGALQCYTRAIQINPAFADAHSNLASIHKDSGNIPEAIASYRTALKLKPDFPDAYCNLAHCLQIVCDWTDYDERMKKLVSIVADQLEKNRLPSVHPHHSMLYPLSHGFRKAIAERHGNLCLDKINVLHKPPYEHPKDLKLSDGRLRVGYVSSDFGNHPTSHLMQSIPGMHNPDKFEVFCYALSPDDGTNFRVKVMAEANHFIDLSQIPCNGKAADRIHQDGIHILVNMNGYTKGARNELFALRPAPIQAMWLGYPGTSGALFMDYIITDQETSPAEVAEQYSEKLAYMPHTFFIGDHANMFPHLKKKAVIDFKSNGHIYDNRIVLNGIDLKAFLDSLPDVKIVKMKCPDGGDNADSSNTALNMPVIPMNTIAEAVIEMINRGQIQITINGFSISNGLATTQINNKAATGEEVPRTIIVTTRSQYGLPEDAIVYCNFNQLYKIDPSTLQMWANILKRVPNSVLWLLRFPAVGEPNIQQYAQNMGLPQNRIIFSPVAPKEEHVRRGQLADVCLDTPLCNGHTTGMDVLWAGTPMVTMPGETLASRVAASQLTCLGCLELIAKNRQEYEDIAVKLGTDLEYLKKVRGKVWKQRISSPLFNTKQYTMELERLYLQMWEHYAAGNKPDHMIKPVEVTESA

- binding [5]: binds
B3: endogenous OGT of mouse embryonic stem cells (enzyme, UniProt Q8CGY8 1-1046)
chain: B2 chain with D495E, A765P, N972S, V993I

More lines, now with the values behind:

B1: His-tagged human OGT (enzyme, UniProt O15294 1-1046)
chain: B2 chain
- binding [1]: binds
- binding [2]: no binding

B4: endogenous OGT of HEK293T cells (enzyme, UniProt O15294 1-1046)
chain: B2 chain
- binding [6]: binds
- binding [7]: no binding

Where a chain is given by its changes, count along the chain named. No constants are given. Whether binding was seen depends on the method and setting. For some of these results: A result given as binding can be weak or reduced; the word gives no strength. For some of these results: In cells and extracts the contact can be indirect. For some of these results: Tags and fused reporters may be left off the sequences shown. Each block holds one binder with its values, some of them ahead of it.
